# PubChem BioAssay AID504786, Drosophila RNAi Screening Center – 2011
# Screen: 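Knock-downs reducing HIF reporter induction by the iron chelator DFO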 (primary screen)
# System: Drosophila S2 cells with a stable HIF luciferase reporter
# Reagents: long dsRNA against Drosophila genes, about 0.2 µg dsRNA per well of a 384-well plate
# Timing: three days of knock-down, then 20 h of DFO before reading
# Challenge: desferrioxamine (DFO) at 100 µM, an iron chelator that mimics hypoxia, for 20 h
# Read-out: 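HIF reporter luminescence in cells given 100 µM DFO for 20 h, using the mouse ldh-a hypoxia-response element, scored as per-plate z-scores; higher means greater loss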
# Reading the numbers: z-score: higher = stronger loss of HIF reporter signal
# In all, the deposit lists about 21,000 reagents; this is an unselected part of those that have a named target and a result. 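Primary screen; positive scores mean lost reporter signal, so the sign may be inverted from the usual convention.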 Names joined by + are all predicted targets of the reagent.
Target gene,amplicon,"z-score, replicate 1","z-score, replicate 2","z-score, replicate 3","z-score, replicate 4"
Pgant7 (Polypeptide N-Acetylgalactosaminyltransferase 7),DRSC19991,-0.1,-0.3,,
Ilp4 (Insulin-like peptide 4),DRSC10701,-0.3,-0.4,,
rush (rush hour),DRSC18568,0.7,0.3,,
TSG101 (Tumor susceptibility gene 101),DRSC11098,-0.1,-0.4,,
ChT (Choline transporter),DRSC16296,-0.2,-0.3,,
Psf2 (Partner of Sld Five 2),DRSC00516,0.4,-0.1,,
aqrs (aquarius),DRSC14724,-0.4,0.1,,
Ctu1 (Cytosolic thiouridylase subunit 1),DRSC07069,-0.3,-0.3,,
CG14931,DRSC02413,-0.1,-0.2,,
CG10013,DRSC14175,-0.3,-0.3,,
Vps33B (Vacuolar protein sorting 33B),DRSC15722,-0.2,0.3,,
CG14961,DRSC08420,-0.2,0,,
yellow-e2,DRSC15169,0,0.2,,
CG1847,DRSC19810,-0.2,-0.4,,
"Pp1-Y1 (Protein phosphatase 1, Y-linked 1)",DRSC20896,-0.2,-0.1,,
Tdc1 (Tyrosine decarboxylase 1),DRSC04942,-0.2,-0.3,,
CG4477,DRSC10425,-0.2,0.1,,
Nthl1 (Nth-like DNA glycosylase 1),DRSC03183,-0.3,-0.3,,
CG16713,DRSC00477,-0.2,-0.6,,
Prosbeta5R1 (Proteasome beta5 subunit-related 1),DRSC04581,0.9,0.3,,
cl (clot),DRSC02118,-0.3,-0.6,,
CG43897,DRSC10965,-0.2,-1,,
CG43897,DRSC10967,-0.3,-0.3,,
Or59a (Odorant receptor 59a),DRSC04631,-0.2,-0.3,,
Send1 (Spermathecal endopeptidase 1),DRSC00482,-0.3,-0.7,,
elm (ethanol sensitive with low memory),DRSC12309,-0.4,-0.4,,
CG7408,DRSC10841,-0.2,-0.3,,
CCHa2-R (CCHamide-2 receptor),DRSC04825,0.4,0,,
CCHa2-R (CCHamide-2 receptor),DRSC04870,0,-0.2,,
CCHa2-R (CCHamide-2 receptor),DRSC04871,0.2,-0.7,,
pira (pirate),DRSC19494,-0.4,-0.8,,
Cpr11A (Cuticular protein 11A),DRSC19861,-0.3,0.5,,
Ssk (Snakeskin),DRSC10756,-0.3,-0.5,,
Tbp (TATA binding protein),DRSC04662,1.4,2.6,,
CG15465,DRSC18048,-0.3,0,,
HisCl1 (Histamine-gated chloride channel subunit 1),DRSC14945,-0.3,-0.4,,
Arf6 (ADP ribosylation factor 6),DRSC05921,-0.4,-0.5,,
CG14562,DRSC11723,-0.3,-0.2,,
Ndfip (Nedd4 family interacting protein),DRSC11201,-0.3,-0.5,,
CG4983,DRSC02799,-0.4,-0.2,,
RpS28a (Ribosomal protein S28a),DRSC15064,-0.4,-0.4,,
Or85a (Odorant receptor 85a),DRSC16764,-0.3,-0.1,,
CG6793,DRSC10714,-0.3,-0.5,,
slo (slowpoke),DRSC17057,-0.3,-0.4,,
CG7017,DRSC10762,-0.1,0,,
CG32507,DRSC20421,-0.2,0,0,0.2
Fad2,DRSC11165,-0.3,-0.5,,
Atf6,DRSC04743,-0.1,-0.2,,
Atf6,DRSC04889,-0.2,-0.1,,
CG4042,DRSC11751,-0.3,-0.5,,
CG8854,DRSC07288,-0.3,-0.4,,
Dhod (Dihydroorotate dehydrogenase),DRSC16647,-0.2,-0.3,,
CG4511,DRSC15589,-0.3,-0.2,,
CG33281,DRSC00421,-0.3,-0.3,,
yellow-d,DRSC04589,-0.2,-0.3,,
Cp36 (Chorion protein 36),DRSC18452,-0.3,-0.5,,
Sec13 (Secretory 13),DRSC14144,-0.3,0.1,,
Sirt1 (Sirtuin 1),DRSC03435,-0.6,-1.3,,
CG31805,DRSC01563,-0.5,-0.3,,
CG1806,DRSC19787,-0.3,-0.6,,
CG13526,DRSC04168,-0.4,-0.6,,
CG1441,DRSC06448,-0.4,-0.4,,
CG16837,DRSC04283,-0.2,-0.6,,
CG3223,DRSC15468,0,-0.4,,
Rilpl (Rab interacting lysosomal protein like),DRSC18494,-0.2,-0.1,,
CG9270,DRSC03182,-0.3,-0.2,,
Ras85D (Ras oncogene at 85D),DRSC16814,2.1,1.9,,
Acadvl (Acyl-CoA dehydrogenase very long chain),DRSC07022,2.5,2.1,,
Slimp (Seryl-tRNA synthetase-like insect mitochondrial protein),DRSC13656,0.1,-0.1,,
CG34289,DRSC13625,-0.2,-0.1,,
SLC5A11 (Sodium/solute co-transporter-like 5A11),DRSC03088,-0.3,-0.9,,
MstProx + Mst84Da,DRSC12597,-0.5,-0.6,,
lt (light),DRSC03759,-0.2,0,,
Fip1 (Factor interacting with poly(A) polymerase 1),DRSC12147,1.5,1.3,,
Ssrp (Structure specific recognition protein),DRSC04658,1.6,1.2,,
Dtwd2 + Obp84a,DRSC12603,-0.4,0.2,,
PGAP1 (Post-GPI attachment to proteins 1),DRSC18286,-0.3,-0.5,,
Rpt2 (Regulatory particle triple-A ATPase 2),DRSC16799,8.1,5.8,,
CG11231 (retired record),DRSC17207,-0.4,0.8,,
her (hermaphrodite),DRSC03543,0.8,1,,
CG2694,DRSC18470,-0.1,-0.7,,
sofe,DRSC19751,-0.2,-0.3,,
Osi7 (Osiris 7),DRSC12176,-0.1,-0.4,,
